# Assay results taken from ChEMBL document CHEMBL1687827, “Profiling the Aspergillus fumigatus proteome in response to caspofungin” (2011).
# This continues a long series; more values of the same kind are listed elsewhere.
# Legend:
# Format in all cases: functional
# Aspergillus fumigatus [1] = test: Induction of change in hypothetical protein level in iTRAQ-118 labelled cell wall fraction of drug-susceptible Aspergillus fumigatus KU80 delta-akuB at 0.12 ug/ml after 24 hrs in YPD medium by MS (MS/MS) analysis relative to control
# Aspergillus fumigatus [2] = test: Induction of change in PT repeat family protein level in iTRAQ-116 labelled secreted fraction of drug-susceptible Aspergillus fumigatus KU80 delta-akuB at 0.12 ug/ml after 48 hrs in YPD medium by MS (MS/MS) analysis relative to control
# Aspergillus fumigatus [3] = test: Induction of change in eukaryotic translation initiation factor subunit eIF-4F, putative protein level in iTRAQ-116 labelled secreted fraction of drug-susceptible Aspergillus fumigatus KU80 delta-akuB at 0.12 ug/ml after 48 hrs in YPD medium by MS (MS/MS) analysis relative to control
# Aspergillus fumigatus [4] = test: Induction of change in ThiJ/PfpI family protein level in iTRAQ-116 labelled secreted fraction of drug-susceptible Aspergillus fumigatus KU80 delta-akuB at 0.12 ug/ml after 48 hrs in YPD medium by MS (MS/MS) analysis relative to control
# Aspergillus fumigatus [5] = test: Induction of change in translation elongation factor EF-Tu, putative protein level in iTRAQ-116 labelled secreted fraction of drug-susceptible Aspergillus fumigatus KU80 delta-akuB at 0.12 ug/ml after 48 hrs in YPD medium by MS (MS/MS) analysis relative to control
# Aspergillus fumigatus [6] = test: Induction of change in 40s ribosomal protein s11 protein level in iTRAQ114 labelled secreted fraction of drug-susceptible Aspergillus fumigatus KU80 delta-akuB at 0.12 ug/ml after 24 hrs in YPD medium by MS (MS/MS) analysis relative to control
# Aspergillus fumigatus [7] = test: Induction of change in 60S ribosomal protein L9 b protein level in iTRAQ114 labelled secreted fraction of drug-susceptible Aspergillus fumigatus KU80 delta-akuB at 0.12 ug/ml after 24 hrs in YPD medium by MS (MS/MS) analysis relative to control
# Aspergillus fumigatus [8] = test: Induction of change in ribosomal protein S14.e protein level in iTRAQ114 labelled secreted fraction of drug-susceptible Aspergillus fumigatus KU80 delta-akuB at 0.12 ug/ml after 24 hrs in YPD medium by MS (MS/MS) analysis relative to control
# Aspergillus fumigatus [9] = test: Induction of change in ribosomal S30/ubiquitin fusion gene expression in drug-susceptible Aspergillus fumigatus KU80 delta-akuB at 0.12 ug/ml after 24 hrs in YPD medium by microarray analysis relative to control
# Aspergillus fumigatus [10] = test: Induction of change in ribosomal protein L26 protein level in iTRAQ114 labelled secreted fraction of drug-susceptible Aspergillus fumigatus KU80 delta-akuB at 0.12 ug/ml after 24 hrs in YPD medium by MS (MS/MS) analysis relative to control
# Aspergillus fumigatus [11] = test: Induction of change in fructose-bisphosphate aldolase, class II protein level in iTRAQ-116 labelled secreted fraction of drug-susceptible Aspergillus fumigatus KU80 delta-akuB at 0.12 ug/ml after 48 hrs in YPD medium by MS (MS/MS) analysis relative to control
# Aspergillus fumigatus [12] = test: Induction of change in 40s ribosomal protein s11 protein level in iTRAQ114 labelled cell wall fraction of drug-susceptible Aspergillus fumigatus KU80 delta-akuB at 0.12 ug/ml after 24 hrs in YPD medium by MS (MS/MS) analysis relative to control
# Aspergillus fumigatus [13] = test: Induction of change in 60S ribosomal protein L1 protein level in iTRAQ114 labelled cell wall fraction of drug-susceptible Aspergillus fumigatus KU80 delta-akuB at 0.12 ug/ml after 24 hrs in YPD medium by MS (MS/MS) analysis relative to control
# Aspergillus fumigatus [14] = test: Induction of change in large subunit ribosomal protein L3 protein level in iTRAQ114 labelled cell wall fraction of drug-susceptible Aspergillus fumigatus KU80 delta-akuB at 0.12 ug/ml after 24 hrs in YPD medium by MS (MS/MS) analysis relative to control
# Aspergillus fumigatus [15] = test: Induction of change in ribosomal protein L26 protein level in iTRAQ114 labelled cell wall fraction of drug-susceptible Aspergillus fumigatus KU80 delta-akuB at 0.12 ug/ml after 24 hrs in YPD medium by MS (MS/MS) analysis relative to control
# Aspergillus fumigatus [16] = test: Induction of change in acetyl-CoA-acetyltransferase, putative gene expression in drug-susceptible Aspergillus fumigatus KU80 delta-akuB at 0.12 ug/ml after 48 hrs in YPD medium by microarray analysis relative to control
# Aspergillus fumigatus [17] = test: Induction of change in cell wall glucanase, putative protein level in iTRAQ-116 labelled cell wall fraction of drug-susceptible Aspergillus fumigatus KU80 delta-akuB at 0.12 ug/ml after 48 hrs in YPD medium by MS (MS/MS) analysis relative to control
# Aspergillus fumigatus [18] = test: Induction of change in fructose-bisphosphate aldolase, class II protein level in iTRAQ-116 labelled cell wall fraction of drug-susceptible Aspergillus fumigatus KU80 delta-akuB at 0.12 ug/ml after 48 hrs in YPD medium by MS (MS/MS) analysis relative to control
# Aspergillus fumigatus [19] = test: Induction of change in nuclear transport factor NTF-2, putative protein level in iTRAQ114 labelled secreted fraction of drug-resistant Aspergillus fumigatus EMFR-S678P at 0.12 ug/ml after 24 hrs in YPD medium by MS (MS/MS) analysis relative to control
# Aspergillus fumigatus [20] = test: Induction of change in PT repeat family protein level in iTRAQ114 labelled secreted fraction of drug-resistant Aspergillus fumigatus EMFR-S678P at 0.12 ug/ml after 24 hrs in YPD medium by MS (MS/MS) analysis relative to control
# Aspergillus fumigatus [21] = test: Induction of change in ubiquinol-cytochrome C reductase complex core protein 2, putative protein level in iTRAQ-118 labelled cell wall fraction of drug-resistant Aspergillus fumigatus EMFR-S678P at 0.12 ug/ml after 24 hrs in YPD medium by MS (MS/MS) analysis relative to control
# Aspergillus fumigatus [22] = test: Induction of change in translation elongation factor eEF-3, putative protein level in iTRAQ-118 labelled cell wall fraction of drug-resistant Aspergillus fumigatus EMFR-S678P at 0.12 ug/ml after 24 hrs in YPD medium by MS (MS/MS) analysis relative to control
# Aspergillus fumigatus [23] = test: Induction of change in nucleoside diphosphate kinase protein level in iTRAQ-116 labelled secreted fraction of drug-resistant Aspergillus fumigatus EMFR-S678P at 0.12 ug/ml after 48 hrs in YPD medium by MS (MS/MS) analysis relative to control
# Aspergillus fumigatus [24] = test: Induction of change in IgE-binding protein level in iTRAQ114 labelled secreted fraction of drug-susceptible Aspergillus fumigatus KU80 delta-akuB at 0.12 ug/ml after 24 hrs in YPD medium by MS (MS/MS) analysis relative to control
compound,measurement,setting,value
CC[C@H](C)C[C@H](C)CCCCCCCCC(=O)N[C@H]1C[C@@H](O)[C@@H](NCCN)NC(=O)[C@@H]2[C@@H](O)CCN2C(=O)[C@H]([C@H](O)CCN)NC(=O)[C@H]([C@H](O)[C@@H](O)c2ccc(O)cc2)NC(=O)[C@@H]2C[C@@H](O)CN2C(=O)[C@H]([C@@H](C)O)NC1=O [CASPOFUNGIN],fold change (FC),Aspergillus fumigatus [1],5.3
same,fold change (FC),Aspergillus fumigatus [2],-16
same,fold change (FC),Aspergillus fumigatus [3],-8.6
same,fold change (FC),Aspergillus fumigatus [4],-5.3
same,fold change (FC),Aspergillus fumigatus [5],-2.8
same,fold change (FC),Aspergillus fumigatus [6],1.2
same,fold change (FC),Aspergillus fumigatus [7],-1
same,fold change (FC),Aspergillus fumigatus [8],1.2
same,fold change (FC),Aspergillus fumigatus [9],3.8
same,fold change (FC),Aspergillus fumigatus [10],1.2
same,fold change (FC),Aspergillus fumigatus [11],1.2
same,fold change (FC),Aspergillus fumigatus [12],2
same,fold change (FC),Aspergillus fumigatus [13],1.9
same,fold change (FC),Aspergillus fumigatus [14],2
same,fold change (FC),Aspergillus fumigatus [15],1.7
same,fold change (FC),Aspergillus fumigatus [16],-10.3
same,fold change (FC),Aspergillus fumigatus [17],-1.3
same,fold change (FC),Aspergillus fumigatus [18],1.5
same,fold change (FC),Aspergillus fumigatus [19],1.87
same,fold change (FC),Aspergillus fumigatus [20],1.07
same,fold change (FC),Aspergillus fumigatus [21],-1.15
same,fold change (FC),Aspergillus fumigatus [22],1.07
same,fold change (FC),Aspergillus fumigatus [23],-1.15
same,fold change (FC),Aspergillus fumigatus [24],-2.8
